Experimental findings from patent US11911477B2, “Use of fructose in preparing drug for treating ischemic injury” (Beihang University, priority 2021, dated 2024) are described below.

The data set concerns DIV7 neurons. Briefly: Metabolic flux experiment with U-13C-fructose in DIV7 neurons. As to conditions: after OGD treatment, compared with the control group. In kind it is cell-based.

Consider `O=[13C]([13CH2]O)[13C@@H](O)[13C@H](O)[13C@H](O)[13CH2]O` [U-13C-fructose], for which the “13C labeling rate in PPP pathway metabolites ribose-5-phosphate and erythrose-4 phosphate” value was “increases”; the “13C labeling rate in TCA pathway metabolites oxaloacetic acid and citric acid” value is reported as “increases”.
